# Assay results taken from article PMC11859184 (Pharmaceuticals, 2025).
# Experiments:
# [1] = Radiation dosimetry, mouse organs/tissues and PC-3 tumor xenografts (OLINDA); format: in vivo; details: for Radiation absorbed dose, PC-3 tumor (1 g): Unit Density Sphere Model
# [2] = Radiation dosimetry extrapolated to adult human male (OLINDA, ICRP 89); format: in vivo; details: for Effective dose: whole-body, per injected radioactivity; for Estimated radiation absorbed dose, Adrenals / Estimated radiation absorbed dose, Brain / Estimated radiation absorbed dose, Esophagus / Estimated radiation absorbed dose, Eyes / Estimated radiation absorbed dose, Gallbladder wall / Estimated radiation absorbed dose, Heart / Estimated radiation absorbed dose, Kidneys / Estimated radiation absorbed dose, Left colon / Estimated radiation absorbed dose, Liver / Estimated radiation absorbed dose, Lungs / Estimated radiation absorbed dose, Pancreas / Estimated radiation absorbed dose, Prostate / Estimated radiation absorbed dose, Rectum / Estimated radiation absorbed dose, Red marrow / Estimated radiation absorbed dose, Right colon / Estimated radiation absorbed dose, Salivary glands / Estimated radiation absorbed dose, Skeleton / Estimated radiation absorbed dose, Small intestine / Estimated radiation absorbed dose, Spleen / Estimated radiation absorbed dose, Stomach wall / Estimated radiation absorbed dose, Testes / Estimated radiation absorbed dose, Thymus / Estimated radiation absorbed dose, Thyroid / Estimated radiation absorbed dose, Total body / Estimated radiation absorbed dose, Urinary bladder: with tumor sink effect correction
# [3] = mouse, with tumor sink effect correction
# [4] = mouse, without tumor sink effect correction
smiles,measurement,setting,value
CC(C)C[C@H](NC(=O)[C@H](Cc1cnc[nH]1)N(C)C(=O)CNC(=O)[C@@H](NC(=O)[C@H](C)NC(=O)[C@H](Cc1c[nH]c2ccccc12)NC(=O)[C@H](CCC(N)=O)NC(=O)[C@@H](Cc1ccccc1)NC(=O)CN1CCC(NC(=O)CN2CCN(CC(=O)O)CCN(CC(=O)O)CCN(CC(=O)O)CC2)CC1)C(C)(C)C)C(=O)N1CC(F)(F)C[C@H]1C(N)=O [[^177Lu]Lu-LW02060] [metal not drawn],tumor absorbed dose relative to [177Lu]Lu-LW02080,[1]; 1-g PC-3 tumor xenograft,5.8 times
same,tumor absorbed dose relative to [177Lu]Lu-ProBOMB5,[1]; 1-g PC-3 tumor xenograft,4.7 time
same,"Radiation absorbed dose, PC-3 tumor (1 g)",[1]; 1-g PC-3 tumor xenograft,272 mGy/MBq
same,pancreas absorbed dose relative to [177Lu]Lu-LW02080,[1]; mouse,around 23 times
same,"Radiation absorbed dose, Bladder",[1]; [3],1510 mGy/MBq
same,"Radiation absorbed dose, Brain",[1]; [3],2.39 mGy/MBq
same,"Radiation absorbed dose, Heart",[1]; [3],6.10 mGy/MBq
same,"Radiation absorbed dose, Kidneys",[1]; [3],148 mGy/MBq
same,"Radiation absorbed dose, Large intestine",[1]; [3],62.9 mGy/MBq
same,"Radiation absorbed dose, Liver",[1]; [3],31.2 mGy/MBq
same,"Radiation absorbed dose, Lungs",[1]; [3],13.0 mGy/MBq
same,"Radiation absorbed dose, Pancreas",[1]; [3],118 mGy/MBq
same,"Radiation absorbed dose, Skeleton",[1]; [3],7.96 mGy/MBq
same,"Radiation absorbed dose, Small intestine",[1]; [3],19.5 mGy/MBq
same,"Radiation absorbed dose, Spleen",[1]; [3],24.2 mGy/MBq
same,"Radiation absorbed dose, Stomach wall",[1]; [3],27.5 mGy/MBq
same,"Radiation absorbed dose, Testes",[1]; [3],7.95 mGy/MBq
same,"Radiation absorbed dose, Thyroid",[1]; [3],1.79 mGy/MBq
same,"Radiation absorbed dose, Total body",[1]; [3],18.0 mGy/MBq
same,"Radiation absorbed dose, Bladder",[1]; [4],734 mGy/MBq
same,"Radiation absorbed dose, Brain",[1]; [4],1.16 mGy/MBq
same,"Radiation absorbed dose, Heart",[1]; [4],2.96 mGy/MBq
same,"Radiation absorbed dose, Kidneys",[1]; [4],72.1 mGy/MBq
same,"Radiation absorbed dose, Large intestine",[1]; [4],30.6 mGy/MBq
same,"Radiation absorbed dose, Liver",[1]; [4],15.2 mGy/MBq
same,"Radiation absorbed dose, Lungs",[1]; [4],6.31 mGy/MBq
same,"Radiation absorbed dose, Pancreas",[1]; [4],57.3 mGy/MBq
same,"Radiation absorbed dose, Skeleton",[1]; [4],3.87 mGy/MBq
same,"Radiation absorbed dose, Small intestine",[1]; [4],9.49 mGy/MBq
same,"Radiation absorbed dose, Spleen",[1]; [4],11.8 mGy/MBq
same,"Radiation absorbed dose, Stomach wall",[1]; [4],13.4 mGy/MBq
same,"Radiation absorbed dose, Testes",[1]; [4],3.86 mGy/MBq
same,"Radiation absorbed dose, Thyroid",[1]; [4],0.869 mGy/MBq
same,"Radiation absorbed dose, Total body",[1]; [4],8.77 mGy/MBq
same,estimated pancreas absorbed dose relative to [177Lu]Lu-LW02080,[2],around 30 times
same,Effective dose,[2],1.16 × 10^−2 mSv/MBq
same,"Estimated radiation absorbed dose, Adrenals",[2],2.45 × 10^−2 mGy/MBq
same,"Estimated radiation absorbed dose, Brain",[2],2.85 × 10^−4 mGy/MBq
same,"Estimated radiation absorbed dose, Esophagus",[2],8.10 × 10^−4 mGy/MBq
same,"Estimated radiation absorbed dose, Eyes",[2],5.72 × 10^−4 mGy/MBq
same,"Estimated radiation absorbed dose, Gallbladder wall",[2],1.20 × 10^−3 mGy/MBq
same,"Estimated radiation absorbed dose, Heart",[2],2.66 × 10^−3 mGy/MBq
same,"Estimated radiation absorbed dose, Kidneys",[2],6.36 × 10^−2 mGy/MBq
same,"Estimated radiation absorbed dose, Left colon",[2],2.59 × 10^−2 mGy/MBq
same,"Estimated radiation absorbed dose, Liver",[2],1.29 × 10^−2 mGy/MBq
same,"Estimated radiation absorbed dose, Lungs",[2],5.31 × 10^−3 mGy/MBq
same,"Estimated radiation absorbed dose, Pancreas",[2],5.08 × 10^−2 mGy/MBq
same,"Estimated radiation absorbed dose, Prostate",[2],1.64 × 10^−3 mGy/MBq
same,"Estimated radiation absorbed dose, Rectum",[2],1.30 × 10^−2 mGy/MBq
same,"Estimated radiation absorbed dose, Red marrow",[2],7.68 × 10^−4 mGy/MBq
same,"Estimated radiation absorbed dose, Right colon",[2],1.35 × 10^−2 mGy/MBq
same,"Estimated radiation absorbed dose, Salivary glands",[2],5.91 × 10^−4 mGy/MBq
same,"Estimated radiation absorbed dose, Skeleton",[2],1.04 × 10^−3 mGy/MBq
same,"Estimated radiation absorbed dose, Small intestine",[2],7.60 × 10^−3 mGy/MBq
same,"Estimated radiation absorbed dose, Spleen",[2],9.47 × 10^−3 mGy/MBq
same,"Estimated radiation absorbed dose, Stomach wall",[2],3.70 × 10^−3 mGy/MBq
same,"Estimated radiation absorbed dose, Testes",[2],2.49 × 10^−3 mGy/MBq
same,"Estimated radiation absorbed dose, Thymus",[2],6.92 × 10^−4 mGy/MBq
same,"Estimated radiation absorbed dose, Thyroid",[2],6.38 × 10^−4 mGy/MBq
same,"Estimated radiation absorbed dose, Total body",[2],2.55 × 10^−3 mGy/MBq
same,"Estimated radiation absorbed dose, Urinary bladder",[2],1.50 × 10^−1 mGy/MBq
CC(C)C[C@@H](CN1CC(F)(F)C[C@H]1C(N)=O)NC(=O)[C@H](Cc1c[nH]cn1)NC(=O)CN(C)C(=O)[C@@H](NC(=O)[C@H](C)NC(=O)[C@H](Cc1c[nH]c2ccccc12)NC(=O)[C@H](CCC(N)=O)NC(=O)[C@@H](Cc1ccccc1)NC(=O)CN1CCC(NC(=O)CN2CCN(CC(=O)O)CCN(CC(=O)O)CCN(CC(=O)O)CC2)CC1)C(C)C [[^177Lu]Lu-LW02080] [metal not drawn],"Radiation absorbed dose, PC-3 tumor (1 g)",[1]; 1-g PC-3 tumor xenograft,47.0 mGy/MBq
same,"Radiation absorbed dose, Bladder",[1]; [3],655 mGy/MBq
same,"Radiation absorbed dose, Brain",[1]; [3],1.01 mGy/MBq
same,"Radiation absorbed dose, Heart",[1]; [3],2.66 mGy/MBq
same,"Radiation absorbed dose, Kidneys",[1]; [3],64.4 mGy/MBq
same,"Radiation absorbed dose, Large intestine",[1]; [3],13.6 mGy/MBq
same,"Radiation absorbed dose, Liver",[1]; [3],7.92 mGy/MBq
same,"Radiation absorbed dose, Lungs",[1]; [3],5.21 mGy/MBq
same,"Radiation absorbed dose, Pancreas",[1]; [3],5.03 mGy/MBq
same,"Radiation absorbed dose, Skeleton",[1]; [3],5.77 mGy/MBq
same,"Radiation absorbed dose, Small intestine",[1]; [3],10.2 mGy/MBq
same,"Radiation absorbed dose, Spleen",[1]; [3],7.29 mGy/MBq
same,"Radiation absorbed dose, Stomach wall",[1]; [3],10.2 mGy/MBq
same,"Radiation absorbed dose, Testes",[1]; [3],3.38 mGy/MBq
same,"Radiation absorbed dose, Thyroid",[1]; [3],0.781 mGy/MBq
same,"Radiation absorbed dose, Total body",[1]; [3],6.71 mGy/MBq
same,"Radiation absorbed dose, Bladder",[1]; [4],499 mGy/MBq
same,"Radiation absorbed dose, Brain",[1]; [4],0.77 mGy/MBq
same,"Radiation absorbed dose, Heart",[1]; [4],2.02 mGy/MBq
same,"Radiation absorbed dose, Kidneys",[1]; [4],49.0 mGy/MBq
same,"Radiation absorbed dose, Large intestine",[1]; [4],10.4 mGy/MBq
same,"Radiation absorbed dose, Liver",[1]; [4],6.03 mGy/MBq
same,"Radiation absorbed dose, Lungs",[1]; [4],3.96 mGy/MBq
same,"Radiation absorbed dose, Pancreas",[1]; [4],3.83 mGy/MBq
same,"Radiation absorbed dose, Skeleton",[1]; [4],4.39 mGy/MBq
same,"Radiation absorbed dose, Small intestine",[1]; [4],7.74 mGy/MBq
same,"Radiation absorbed dose, Spleen",[1]; [4],5.55 mGy/MBq
same,"Radiation absorbed dose, Stomach wall",[1]; [4],7.79 mGy/MBq
same,"Radiation absorbed dose, Testes",[1]; [4],2.57 mGy/MBq
same,"Radiation absorbed dose, Thyroid",[1]; [4],0.594 mGy/MBq
same,"Radiation absorbed dose, Total body",[1]; [4],5.11 mGy/MBq
same,Effective dose,[2],4.15 × 10^−3 mSv/MBq
same,"Estimated radiation absorbed dose, Adrenals",[2],4.24 × 10^−3 mGy/MBq
same,"Estimated radiation absorbed dose, Brain",[2],1.04 × 10^−4 mGy/MBq
same,"Estimated radiation absorbed dose, Esophagus",[2],3.14 × 10^−4 mGy/MBq
same,"Estimated radiation absorbed dose, Eyes",[2],2.45 × 10^−4 mGy/MBq
same,"Estimated radiation absorbed dose, Gallbladder wall",[2],4.15 × 10^−4 mGy/MBq
same,"Estimated radiation absorbed dose, Heart",[2],1.17 × 10^−3 mGy/MBq
same,"Estimated radiation absorbed dose, Kidneys",[2],2.78 × 10^−2 mGy/MBq
same,"Estimated radiation absorbed dose, Left colon",[2],5.58 × 10^−3 mGy/MBq
same,"Estimated radiation absorbed dose, Liver",[2],3.17 × 10^−3 mGy/MBq
same,"Estimated radiation absorbed dose, Lungs",[2],2.11 × 10^−3 mGy/MBq
same,"Estimated radiation absorbed dose, Pancreas",[2],1.69 × 10^−3 mGy/MBq
same,"Estimated radiation absorbed dose, Prostate",[2],6.94 × 10^−4 mGy/MBq
same,"Estimated radiation absorbed dose, Rectum",[2],3.00 × 10^−3 mGy/MBq
same,"Estimated radiation absorbed dose, Red marrow",[2],3.23 × 10^−4 mGy/MBq
same,"Estimated radiation absorbed dose, Right colon",[2],2.98 × 10^−3 mGy/MBq
same,"Estimated radiation absorbed dose, Salivary glands",[2],2.52 × 10^−4 mGy/MBq
same,"Estimated radiation absorbed dose, Skeleton",[2],4.73 × 10^−4 mGy/MBq
same,"Estimated radiation absorbed dose, Small intestine",[2],3.97 × 10^−3 mGy/MBq
same,"Estimated radiation absorbed dose, Spleen",[2],2.92 × 10^−3 mGy/MBq
same,"Estimated radiation absorbed dose, Stomach wall",[2],1.45 × 10^−3 mGy/MBq
same,"Estimated radiation absorbed dose, Testes",[2],1.05 × 10^−3 mGy/MBq
same,"Estimated radiation absorbed dose, Thymus",[2],2.85 × 10^−4 mGy/MBq
same,"Estimated radiation absorbed dose, Thyroid",[2],2.68 × 10^−4 mGy/MBq
same,"Estimated radiation absorbed dose, Total body",[2],9.77 × 10^−4 mGy/MBq
same,"Estimated radiation absorbed dose, Urinary bladder",[2],6.51 × 10^−2 mGy/MBq
